Results published in PubChem BioAssay AID2517 (National Center for Advancing Translational Sciences (NCATS), 2010).
The whole screen tested about 350,000 compounds, of which about 1,200 (0.34%) were called active. Inconclusive results, whose numbers are uncertain, are shown with a selection of clear calls. The call rests on the fitted dose curve; in most records, active means well fitted inhibition curve with a large enough effect; inconclusive means small, poorly fitted or top-dose-only effect; inactive means no such curve, though single readings can be large or run the other way. A potency beside an inconclusive call is a rough fit, not a confirmed value.

The chains behind the UniProt entries cited, without tags or fusion partners.
UniProt P27695, whole entry, looked up: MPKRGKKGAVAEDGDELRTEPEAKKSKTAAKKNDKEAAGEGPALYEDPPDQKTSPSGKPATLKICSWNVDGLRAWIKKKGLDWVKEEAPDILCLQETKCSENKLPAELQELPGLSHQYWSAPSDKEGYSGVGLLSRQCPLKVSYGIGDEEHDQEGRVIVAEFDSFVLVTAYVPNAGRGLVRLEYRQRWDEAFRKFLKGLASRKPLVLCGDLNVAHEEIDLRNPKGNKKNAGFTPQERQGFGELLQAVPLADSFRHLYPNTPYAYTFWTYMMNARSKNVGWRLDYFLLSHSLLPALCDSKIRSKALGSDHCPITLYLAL

target: DNA repair nuclease/redox regulator APEX1 (Homo sapiens) (UniProt P27695); assay: qHTS Assay for Inhibitors of the Human Apurinic/apyrimidinic Endonuclease 1 (APE1); details: recombinant APE1, TAMRA/BHQ-2 abasic DNA cleavage fluorescence; activity change, negative = inhibition: at 65.8 µM (top of the series); further: nearly all actives have a fitted effect of over 55% in size;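 on activity change, negative = inhibition: plate controls were vehicle for no effect and reference inhibitor for full effect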
Outline: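 Readout is kinetic fluorescence (ex 525, em 598 nm) from cleavage of 50 nM TAMRA/BHQ-2 THF abasic duplex by 0.75 nM APE1, compound added 15 min beforehand at RT.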
Potency means the concentration at half of the fitted maximal effect.

| SMILES | activity change, negative = inhibition | Potency |
| --- | --- | --- |
| Cc1cc(-c2[nH]nc3c2C(c2ccsc2)C(C#N)=C(N)O3)c(C)s1 (stereo not given) | inactive: 8.97% | – |
| COc1ccc2c(c1)O[C@H](c1ccc3c(c1)OCO3)[C@@H](OC(=O)Nc1cc(OC)c(OC)c(OC)c1)C2=O | – | inconclusive: 0.891 µM [inhibitor, full curve, poor fit] |
| CCCCN(CCCNC(=O)Cn1ncc2ccsc2c1=O)Cc1ccccc1 | – | inconclusive: 8.91 µM [inhibitor, single point] |
| COc1ccc([C@H]2CC(=O)c3c(O)cc(O)cc3O2)cc1O | inactive: -2.87% | – |
| COc1cc2c3cc1Oc1cc(ccc1O)CC1c4c(cc(OC)c(O)c4Oc4ccc(cc4)CC3N(C)CC2)CC[N+]1(C)C (stereo not given) | inactive: 1.64% | – |
| N#Cc1ccc(OCC(=O)N2CCN(S(=O)(=O)c3cccs3)CC2)cc1 | inactive: -0.964% | – |
| COc1ccccc1OCC(=O)Nc1oc(-c2ccccc2)c(-c2ccccc2)c1C#N | – | inconclusive: 3.55 µM [inhibitor, partial curve, poor fit] |
| COc1ccc(/C=N/OC(=O)c2ccc(Cl)cc2)c(Cl)c1OC | – | inconclusive: 3.98 µM [inhibitor, single point] |
| O=C(Cc1nn[nH]n1)NCCC1=CCCCC1 | – | inconclusive: 0.199 µM [inhibitor, full curve, poor fit] |
| Nc1nc(NCc2ccco2)nc(Nc2cccc(F)c2)c1[N+](=O)[O-] | – | inconclusive: 3.98 µM [inhibitor, partial curve, poor fit] |
| O=[N+]([O-])c1ccc(O)c(/C=N/NC(=S)Nc2ccc(Cl)cc2Cl)c1 | inactive: 8.98% | – |
| CC1S/C(=N/N=C/c2ccco2)N(Cc2ccccc2)C1=O (stereo not given) | – | inconclusive: 3.55 µM [inhibitor, single point] |
| CN(C)Cc1ccccc1-c1nc(NC2CCNCC2)c2ccccc2n1 | – | inconclusive: 31.6 µM [inhibitor, partial curve] |
| N[C@H](CO)Cc1cnc[nH]1 | – | inconclusive: 44.7 µM [inhibitor, single point] |
| O=C(CN(Cc1ccccc1Cl)C(=O)c1csnn1)NC1CCCC1 | – | inconclusive: 29.9 µM [inhibitor, single point] |
| O=C(c1cc(-c2ccco2)nc2ccccc12)N1CCCC(C(F)(F)F)C1 (stereo not given) | – | inconclusive: 11.9 µM [inhibitor, partial curve] |
| CC1Cc2nc(SCC(=O)OCc3ccccc3)n(C)c(=O)c2S1 (stereo not given) | – | inconclusive: 2.51 µM [inhibitor, partial curve, poor fit] |
| FC(F)(F)c1cccc(NC(=S)NC2CCCC2)c1 | – | inconclusive: 25.1 µM [inhibitor, single point] |
| Cc1cc(C)cc(NC(=O)NCC(O)COc2ccc([N+](=O)[O-])cc2)c1 (stereo not given) | – | inconclusive: 3.16 µM [inhibitor, partial curve, poor fit] |
| C=CCc1c(C)nc(-c2ccccc2)nc1Nc1ccccc1O | – | inconclusive: 10 µM [inhibitor, full curve, poor fit] |
| COC(=O)c1c(/N=C/N(C)C)sc2c1CCN(c1ncc(C(F)(F)F)cc1Cl)C2 | inactive: 5.61% | – |
| O=C1CSC(=S)N1/N=C/c1ccc(O)c(O)c1O | – | active: 0.355 µM |

| SMILES | activity change, negative = inhibition | Potency |
| --- | --- | --- |
| COc1ccc(NC(=O)COC(=O)C2CC(=O)N(Cc3ccc(C)cc3)C2)cc1 (stereo not given) | – | inconclusive: 26.7 µM [inhibitor, single point] |
| CC1=NNC(=O)C1CC(=O)N/N=C/c1ccncc1 (stereo not given) | – | inconclusive: 89.1 µM [inhibitor, partial curve, poor fit] |
| Cc1coc2c(C)c3oc(=O)c(CCC(=O)N[C@@H](C)C(=O)N[C@@H](Cc4ccccc4)C(=O)O)c(C)c3cc12 | – | active: 13.4 µM |
| O=c1cnnc(Nc2ccc(Nc3ccccc3)cc2)[nH]1 | – | inconclusive: 0.0398 µM [inhibitor, full curve, poor fit] |
| CCCn1c(N)c(N(CCOC)C(=O)c2cc3c(s2)CCCCC3)c(=O)[nH]c1=O | inactive: -7.12% | – |
| C/C(=N\NC(=O)c1ccco1)c1ccc(C(=O)O)s1 | inactive: 41.9% | – |
| CCOc1ccc(NC(=O)Nc2ccc3nsnc3c2)cc1 | – | inconclusive: 39.8 µM [inhibitor, partial curve, poor fit] |
| [N-]=C=C1C(=S)NC(=O)[C@H]([n+]2ccccc2)[C@H]1c1ccc(Cl)cc1 | – | inconclusive: 39.8 µM [inhibitor, single point] |
| C=CCO/N=C(/C)c1c(O)c(CC)c(-c2ccccc2)n(-c2ccccc2)c1=O | – | inconclusive: 31.6 µM [inhibitor, single point] |
| Cc1noc(C)c1S(=O)(=O)Nc1cccc(CO)c1 | inactive: 20% | – |
| Cc1cc(C)c2c(N)c(C(=O)NN3CC(=O)N(c4cccc(Cl)c4)CC3=O)sc2n1 | – | inconclusive: 20 µM [inhibitor, single point] |
| CCCCN1C(=N)N([C@@H](C)CN2CCC[C@H]2CN2C(N)=NC[C@@H]2Cc2ccccc2)C[C@H]1Cc1ccccc1 | – | inconclusive: 10.6 µM [inhibitor, partial curve] |
| CC(=O)Nc1ccc(S(=O)(=O)N2C(=O)c3cccc4cccc2c34)cc1 | – | inconclusive: 17.8 µM [inhibitor, partial curve, poor fit] |
| Cc1noc(C)c1COc1cccc(C(=O)Nc2ccc3c(c2)OCO3)c1 | – | inconclusive: 3.55 µM [inhibitor, partial curve] |
| CCOc1ccc(NC(=O)CSc2nnc(-c3ccco3)n2C)cc1 | – | inconclusive: 100 µM [inhibitor, partial curve, poor fit] |
| Nc1c(C(=O)c2ccco2)oc2ccccc12 | – | inconclusive: 44.7 µM [inhibitor, partial curve] |
| NC1=NC(=O)/C(=C/c2cn(CCC(=O)O)nc2-c2ccc(F)cc2)S1 | – | inconclusive: 6.31 µM [inhibitor, full curve, poor fit] |
| CCOC(=O)c1cc(-c2ccco2)nn1-c1ccc(C)cc1 | inactive: -2.29% | – |
| c1ccc(Cc2nn3c(Cn4nnc5ccccc54)nnc3s2)cc1 | inactive: 1.03% | – |
| CCS(=O)(=O)C1=NN2C(=N)/C(=C\c3ccc(SCc4ccco4)o3)C(=O)N=C2S1 | – | inconclusive: 5.62 µM [inhibitor, single point] |
| CNc1nc(C#N)nc(Nc2ccccc2)n1 | – | inconclusive: 44.7 µM [inhibitor, single point] |
| O=C(NCC1(N2CCCCC2)CCCCC1)c1cccc(S(=O)(=O)Nc2ccc(F)cc2)c1 | inactive: -7.67% | – |

| SMILES | activity change, negative = inhibition | Potency |
| --- | --- | --- |
| Oc1ccc(N=C/C=C/c2cccc(Br)c2)cc1-c1nc2ccccc2s1 | inactive: -4.79% | – |
| COC(=O)C1=C(C(=O)OC)[C@@H]2N(Cc3ccccc3)c3ccccc3[C@@]23C[C@@H](C(=O)OC)N(C(=O)c2cc(C)oc2C)C3=N1 | – | inconclusive: 0.0282 µM [inhibitor, full curve, poor fit] |
| CCCCCn1c(=O)c(C(=O)c2ccccc2)nc2ccccc21 | inactive: -3.36% | – |
| Cc1cccc(C(=O)NCC(=O)OCC(=O)N2CCc3ccccc32)c1 | – | inconclusive: 141 µM [inhibitor, partial curve, poor fit] |
| COc1ccc(/C=C2/C(=O)N(c3ccccc3)N=C2C)cc1Br | inactive: 7.43% | – |
| Cc1ccc(OCCN2CCN(CC(O)Cn3c4ccccc4c4ccccc43)CC2)cc1 (stereo not given) | inactive: -2.61% | – |
| CC(C)CC(=O)NC(=S)Nc1cccc(NC(=O)c2ccccc2)c1 | – | inconclusive: 0.0794 µM [inhibitor, partial curve, poor fit] |
| Cc1ccccc1Nc1nnc(SCC(=O)NCc2ccco2)s1 | – | inconclusive: 39.8 µM [inhibitor, single point] |
| CC(C)NC(=O)c1onc(CSc2ccc(C(C)C)cc2)c1C(=O)O | – | inconclusive: 44.7 µM [inhibitor, single point] |
| O=C(C1=C[C@H](c2ccccc2)C[C@H](OCc2ccc(CO)cc2)O1)N1CCN(Cc2ccccc2)CC1 | inactive: -1.02% | – |
| CCCCCCCC1=Cc2ccccc2C(CC(=O)c2ccccc2)N1C(=O)OC (stereo not given) | inactive: -7.44% [at 12.4 µM] | – |
| CCC1=C(OC(=O)N(CC)CC)N2C(=O)OC(=NCCc3c[nH]c4ccccc34)[C@]2(C)[C@H]2C1=CC[C@H]1C(=O)NC(=O)[C@H]12 | – | inconclusive: 28.2 µM [inhibitor, single point] |
| COCCN(C(=O)COC(=O)/C=C/c1ccco1)c1c(N)n(Cc2ccccc2)c(=O)[nH]c1=O | – | inconclusive: 26.7 µM [inhibitor, single point] |
| COc1ccc(C2c3sc(=O)[nH]c3SC3C(=O)N(c4ccccc4)C(=O)C32)cc1 (stereo not given) | – | inconclusive: 39.8 µM [inhibitor, single point] |
| CCOC(=O)C(=CN(CCc1ccccc1)CC(=O)OC)C(=O)OCC | – | inconclusive: 5.62 µM [inhibitor, single point] |
| O=S(=O)(Cc1cc(Sc2ccc(Cl)cc2)nc(-c2ccccc2)n1)c1ccccc1 | – | inconclusive: 31.6 µM [inhibitor, partial curve] |
| CC(=O)c1ccccc1NC(=O)COC(=O)c1cc2ccccc2[nH]1 | inactive: -2.44% | – |
| Cc1cc(C)n2nc(C(=O)OCC(=O)Nc3ccc4c(c3)OCO4)nc2n1 | – | inconclusive: 2 µM [inhibitor, partial curve] |
| Cc1ccsc1/C=N/n1c(-c2cc(-c3ccccc3)n[nH]2)n[nH]c1=S | inactive: 1.41% | – |
| Cc1ccccc1N=C(NOCc1ccc(Cl)cc1Cl)c1nonc1N | – | inconclusive: 2.51 µM [inhibitor, partial curve, poor fit] |
| O=C1/C(=C\c2ccccn2)SC(=S)N1c1ccc(S(=O)(=O)Nc2nccs2)cc1 | – | inconclusive: 20 µM [inhibitor, single point] |

Ordered by SMILES length (smallest number first): five of the compounds above.

| SMILES | activity change, negative = inhibition | Potency |
| --- | --- | --- |
| Cc1ccccc1Nc1nnc(SCC(=O)NCc2ccco2)s1 | – | inconclusive: 39.8 µM [inhibitor, single point] |
| Cc1cccc(C(=O)NCC(=O)OCC(=O)N2CCc3ccccc32)c1 | – | inconclusive: 141 µM [inhibitor, partial curve, poor fit] |
| Cc1ccc(OCCN2CCN(CC(O)Cn3c4ccccc4c4ccccc43)CC2)cc1 (stereo not given) | inactive: -2.61% | – |
| O=C1/C(=C\c2ccccn2)SC(=S)N1c1ccc(S(=O)(=O)Nc2nccs2)cc1 | – | inconclusive: 20 µM [inhibitor, single point] |
| COCCN(C(=O)COC(=O)/C=C/c1ccco1)c1c(N)n(Cc2ccccc2)c(=O)[nH]c1=O | – | inconclusive: 26.7 µM [inhibitor, single point] |
